Measured values from patent US11974571B1, “3-5-dinitro-N-(pyrimidin-2-ylcarbamothioyl)benzamide as an eco-friendly insecticidal agent against Spodoptera littoralis (boisd.)” (KING FAISAL UNIVERSITY, priority 2023, dated 2024).

Tested on: Spodoptera littoralis
Assay: Insecticidal bioassay screening (castor leaf dip), laboratory strain of cotton leafworm
Format: in vivo
Settings: after 72 hrs of treatment, slope of concentration-mortality (LDP) line
Experimental: Five concentrations (200, 100, 50, 25, 12.5 ppm) were designed for this synthetic compound and the reference Diflubenzuron compound as the dynamic ingredients based on mg/L via diluting the commercial formulation.
[…] Larvae of the second and fourth instars of each checked strain are prepared with treated leaves in gauze-covered glass containers for 72 hrs. An untreated control is made in which leaves are dipped in triton x-100 and distilled water only. Then the preserved leaves were removed & fresh, untreated leaves were provided for 72 hours. Three replicates (10 larvae each) were checked for each concentration. Daily inspection was carried out for all treatments and mortality percentages were recorded 3 days (72 hours) after treatment. The average mortality percentage was corrected employing Abbott's formula. The corrected mortality rate for each of the previously synthesized compounds is statistically calculated according to Finney (1970). Through this rate, the corresponding concentration test lines (LDP lines) are assessed.

Structure (SMILES): O=C(NC(=S)Nc1ncccn1)c1cc([N+](=O)[O-])cc([N+](=O)[O-])c1 [Compound 1, 3,5-dinitro-N-(pyrimidin-2-ylcarbamothioyl)benzamide]
- Slope (2nd instar larvae): 1.12 ± 0.36
- Slope (4th instar larvae): 1.12 ± 0.36
